Assay [1] addresses Ded1 (DEAD-box RNA helicase Ded1) (S. cerevisiae (endogenous in yeast)) (UniProt P06634). The assay can be described thus: co-IP.
Assay [2] concerns the target Recombinant Ded1-His (S. cerevisiae) (UniProt P06634). Briefly: co-IP.

Sequences of proteins named here, by UniProt entry; tags and fusion partners are left off.
UniProt P06634: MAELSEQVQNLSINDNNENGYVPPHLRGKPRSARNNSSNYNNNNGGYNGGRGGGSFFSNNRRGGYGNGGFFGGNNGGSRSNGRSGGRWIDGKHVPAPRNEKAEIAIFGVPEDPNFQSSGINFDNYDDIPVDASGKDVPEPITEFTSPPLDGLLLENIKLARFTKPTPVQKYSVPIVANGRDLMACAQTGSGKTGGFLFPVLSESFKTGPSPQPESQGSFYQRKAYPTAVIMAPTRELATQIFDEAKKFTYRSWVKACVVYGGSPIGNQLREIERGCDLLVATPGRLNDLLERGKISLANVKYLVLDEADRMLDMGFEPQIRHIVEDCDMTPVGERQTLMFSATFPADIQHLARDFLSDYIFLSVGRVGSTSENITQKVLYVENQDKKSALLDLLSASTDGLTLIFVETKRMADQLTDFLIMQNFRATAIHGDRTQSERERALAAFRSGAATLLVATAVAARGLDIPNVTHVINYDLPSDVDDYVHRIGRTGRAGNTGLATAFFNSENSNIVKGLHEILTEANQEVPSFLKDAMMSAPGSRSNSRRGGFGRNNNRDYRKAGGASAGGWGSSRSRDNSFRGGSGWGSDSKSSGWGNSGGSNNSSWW

Results are given in words; binding and its absence hold for the method and conditions named. For some of these results: Binding seen in cells or lysates may run through a third protein. Some entries that bind do so weakly or less than the wild type. Where a sequence is shown, tags or fusion partners need not be part of it.

B1: HA-tagged SRP101 (receptor, UniProt P32916 1-621)
chain: MFDQLAVFTPQGQVLYQYNCLGKKFSEIQINSFISQLITSPVTRKESVANANTDGFDFNLLTINSEHKNSPSFNALFYLNKQPELYFVVTFAEQTLELNQETQQTLALVLKLWNSLHLSESILKNRQGQNEKNKHNYVDILQGIEDDLKKFEQYFRIKYEESIKQDHINPDNFTKNGSVPQSHNKNTKKKLRDTKGKKQSTGNVGSGRKWGRDGGMLDEMNHEDAAKLDFSSSNSHNSSQVALDSTINKDSFGDRTEGGDFLIKEIDDLLSSHKDEITSGNEAKNSGYVSTAFGFLQKHVLGNKTINESDLKSVLEKLTQQLITKNVAPEAADYLTQQVSHDLVGSKTANWTSVENTARESLTKALTQILTPGVSVDLLREIQSKRSKKDEEGKCDPYVFSIVGVNGVGKSTNLSKLAFWLLQNNFKVLIVACDTFRSGAVEQLRVHVENLAQLMDDSHVRGSKNKRGKTGNDYVELFEAGYGGSDLVTKIAKQAIKYSRDQNFDIVLMDTAGRRHNDPTLMSPLKSFADQAKPDKIIMVGEALVGTDSVQQAKNFNDAFGKGRNLDFFIISKCDTVGEMLGTMVNMVYATGIPILFVGVGQTYTDLRTLSVKWAVNTLMS
Consider B1, for which the binding result in assay [1] is given as “binds”.

B2: Recombinant His-tagged SRP21 (protein, UniProt P32342 1-167)
chain: MSVKPIDNYITNSVRLFEVNPSQTLFSISYKPPTQKTDTKVSFRTHNSHLSLNYKFTTNKSKDVSRLLSALGPRGVSITPGKIEKIAQSKKKNNKIKESSKKIKGKSIQDIVGLATLIVNTDVEKSDPAAKKTATEPKQKANAVQNNNGNSAASKKKKNKNKGKKKR
B2: the binding result in assay [2] was “binds weakly”.

B3: HA-tagged Sec65 (protein, UniProt P29478 1-273)
chain: MPRLEEIDDFNDIDDLDMELAELDPSLRTPIAPKITPKVVRSQDQENPAFLPGTNNNSNSNNNSSNEKEQLSFINPKTGKVERSEAISKKDLEEVKRFQVLYPCYFDINRSHKEGRRVPKELAVENPLAKTMADAVRELGILCIFEGEKCHPQDFGNPGRIRVLFKENGQLIGAATKFKGGKRQLMKAVGEYMKRHPTTIESLREIPYGPDFDNIEFKKIPRVKGFKMNEIVPLHSPFLMGHPMTKSVYETPKITAAEKSFKPPKNKYKVVRR
Turning to B3, the binding entry in assay [1] is “binds”.

B4: HA-tagged SRP14 (protein, UniProt P38985 1-146)
chain: MANTGCLSPGAFLSKVPEFFQTANEKHITVRLTAKRLIEHDPVEGNLEFDSTNHPDYDVSKKASEISVSSRSDREYPLLIRMSYGSHDKKTKCSTVVKASELDQFWQEYSSVFKGGMQNLIKKKKKKSKNGTISKTGKKNKVAKKN
As for B4, in assay [1], the binding entry is “binds”.

The values above are taken from doi:10.1101/2020.11.08.373522.
